Consider one substance from paper PMC9520879.

Sequences of proteins named here, by UniProt entry; tags and fusion partners are left off.
UniProt Q14258: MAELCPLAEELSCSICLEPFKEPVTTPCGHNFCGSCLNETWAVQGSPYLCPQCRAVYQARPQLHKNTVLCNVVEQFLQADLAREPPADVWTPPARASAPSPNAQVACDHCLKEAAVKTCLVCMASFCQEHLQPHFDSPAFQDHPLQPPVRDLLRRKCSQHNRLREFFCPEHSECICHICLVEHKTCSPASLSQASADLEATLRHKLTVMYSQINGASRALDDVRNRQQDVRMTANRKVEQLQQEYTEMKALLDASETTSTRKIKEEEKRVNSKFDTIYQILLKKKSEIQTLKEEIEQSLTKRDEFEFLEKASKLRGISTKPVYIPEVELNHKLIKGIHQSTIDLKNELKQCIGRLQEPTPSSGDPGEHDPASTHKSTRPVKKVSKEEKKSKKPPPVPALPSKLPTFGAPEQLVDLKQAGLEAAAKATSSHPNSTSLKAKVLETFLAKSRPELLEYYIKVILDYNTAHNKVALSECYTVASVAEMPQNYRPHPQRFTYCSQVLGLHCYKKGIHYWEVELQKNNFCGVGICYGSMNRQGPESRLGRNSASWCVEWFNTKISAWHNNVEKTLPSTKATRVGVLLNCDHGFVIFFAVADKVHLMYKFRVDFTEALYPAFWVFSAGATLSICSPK

These are yes or no findings as the source states them, for the method shown. Binding seen in cells or lysates may run through a third protein. Some binding calls cover weakened binding; strength is not graded here.

The experiment has as its target T1, RPRD1B (regulation of nuclear pre-mRNA domain containing 1B) (human (in gastric cancer cell lines; endogenous or stably overexpressed not told)) (UniProt Q9NQG5).
T1 sequence: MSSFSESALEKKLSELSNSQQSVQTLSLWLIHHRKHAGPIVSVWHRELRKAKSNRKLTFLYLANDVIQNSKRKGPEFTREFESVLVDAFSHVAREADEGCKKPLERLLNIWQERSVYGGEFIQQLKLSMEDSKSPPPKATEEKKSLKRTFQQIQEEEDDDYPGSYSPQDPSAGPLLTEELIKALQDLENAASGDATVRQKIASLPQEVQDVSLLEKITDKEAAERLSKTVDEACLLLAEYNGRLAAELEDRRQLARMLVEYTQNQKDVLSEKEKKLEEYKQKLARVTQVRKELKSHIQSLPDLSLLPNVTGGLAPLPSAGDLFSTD
Put plainly: co-IP; co-IP from gastric cancer cells; the precipitated protein, cell line and buffer are not told (no co-IP method in the methods section).

Take “E3 ubiquitin ligase TRIM25 (from UniProt Q14258 1-630)”: the binding result was “binds”.
